Data taken from article PMC3826128 (Marine Drugs, 2013).

System: L. infantum promastigotes
Assay: Toxicity towards L. infantum promastigotes
Format: cell-based, Leishmania infantum
Settings: macrophage IC50 / L. infantum EC50
Description: The experimental procedures employed to assess the toxicity of acids 1 and 2 towards L. infantum and L. donovani are the same as the ones previously described. CPT was used as the control drug.

SMILES | Therapeutic Index (IC50/EC50)
CCCCCCCCCCC#CCCC#CCCC(OC)C(=O)O (racemic) [compound 2, (±)-2-methoxy-5,9-eicosadiynoic acid] | 0.4
CCCCCCCCCC/C=C\CC/C=C\CCC(OC)C(=O)O (racemic) [compound 1, (5Z,9Z)-(±)-2-methoxy-5,9-eicosadienoic acid] | 0.4
